This passage reports binding results from article PMC8759291.

Protein sequences, listed by entry. Tags and fused reporters are not part of them.
UniProt O00425: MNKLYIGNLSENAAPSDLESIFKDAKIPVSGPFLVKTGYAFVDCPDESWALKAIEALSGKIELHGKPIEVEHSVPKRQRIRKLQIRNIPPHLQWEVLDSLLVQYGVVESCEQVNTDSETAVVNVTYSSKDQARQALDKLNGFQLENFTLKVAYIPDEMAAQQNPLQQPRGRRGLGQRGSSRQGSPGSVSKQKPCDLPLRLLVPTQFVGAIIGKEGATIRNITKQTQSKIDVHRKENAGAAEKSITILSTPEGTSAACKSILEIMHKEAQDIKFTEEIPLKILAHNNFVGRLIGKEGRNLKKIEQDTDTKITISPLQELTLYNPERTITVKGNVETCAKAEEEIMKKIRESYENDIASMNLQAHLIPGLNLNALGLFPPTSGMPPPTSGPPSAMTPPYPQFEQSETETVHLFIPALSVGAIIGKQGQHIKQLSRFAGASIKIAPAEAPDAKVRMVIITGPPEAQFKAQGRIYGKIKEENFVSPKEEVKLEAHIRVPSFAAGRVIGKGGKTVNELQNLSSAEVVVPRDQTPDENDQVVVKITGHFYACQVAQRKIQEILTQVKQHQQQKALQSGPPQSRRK
UniProt Q9Y4D8: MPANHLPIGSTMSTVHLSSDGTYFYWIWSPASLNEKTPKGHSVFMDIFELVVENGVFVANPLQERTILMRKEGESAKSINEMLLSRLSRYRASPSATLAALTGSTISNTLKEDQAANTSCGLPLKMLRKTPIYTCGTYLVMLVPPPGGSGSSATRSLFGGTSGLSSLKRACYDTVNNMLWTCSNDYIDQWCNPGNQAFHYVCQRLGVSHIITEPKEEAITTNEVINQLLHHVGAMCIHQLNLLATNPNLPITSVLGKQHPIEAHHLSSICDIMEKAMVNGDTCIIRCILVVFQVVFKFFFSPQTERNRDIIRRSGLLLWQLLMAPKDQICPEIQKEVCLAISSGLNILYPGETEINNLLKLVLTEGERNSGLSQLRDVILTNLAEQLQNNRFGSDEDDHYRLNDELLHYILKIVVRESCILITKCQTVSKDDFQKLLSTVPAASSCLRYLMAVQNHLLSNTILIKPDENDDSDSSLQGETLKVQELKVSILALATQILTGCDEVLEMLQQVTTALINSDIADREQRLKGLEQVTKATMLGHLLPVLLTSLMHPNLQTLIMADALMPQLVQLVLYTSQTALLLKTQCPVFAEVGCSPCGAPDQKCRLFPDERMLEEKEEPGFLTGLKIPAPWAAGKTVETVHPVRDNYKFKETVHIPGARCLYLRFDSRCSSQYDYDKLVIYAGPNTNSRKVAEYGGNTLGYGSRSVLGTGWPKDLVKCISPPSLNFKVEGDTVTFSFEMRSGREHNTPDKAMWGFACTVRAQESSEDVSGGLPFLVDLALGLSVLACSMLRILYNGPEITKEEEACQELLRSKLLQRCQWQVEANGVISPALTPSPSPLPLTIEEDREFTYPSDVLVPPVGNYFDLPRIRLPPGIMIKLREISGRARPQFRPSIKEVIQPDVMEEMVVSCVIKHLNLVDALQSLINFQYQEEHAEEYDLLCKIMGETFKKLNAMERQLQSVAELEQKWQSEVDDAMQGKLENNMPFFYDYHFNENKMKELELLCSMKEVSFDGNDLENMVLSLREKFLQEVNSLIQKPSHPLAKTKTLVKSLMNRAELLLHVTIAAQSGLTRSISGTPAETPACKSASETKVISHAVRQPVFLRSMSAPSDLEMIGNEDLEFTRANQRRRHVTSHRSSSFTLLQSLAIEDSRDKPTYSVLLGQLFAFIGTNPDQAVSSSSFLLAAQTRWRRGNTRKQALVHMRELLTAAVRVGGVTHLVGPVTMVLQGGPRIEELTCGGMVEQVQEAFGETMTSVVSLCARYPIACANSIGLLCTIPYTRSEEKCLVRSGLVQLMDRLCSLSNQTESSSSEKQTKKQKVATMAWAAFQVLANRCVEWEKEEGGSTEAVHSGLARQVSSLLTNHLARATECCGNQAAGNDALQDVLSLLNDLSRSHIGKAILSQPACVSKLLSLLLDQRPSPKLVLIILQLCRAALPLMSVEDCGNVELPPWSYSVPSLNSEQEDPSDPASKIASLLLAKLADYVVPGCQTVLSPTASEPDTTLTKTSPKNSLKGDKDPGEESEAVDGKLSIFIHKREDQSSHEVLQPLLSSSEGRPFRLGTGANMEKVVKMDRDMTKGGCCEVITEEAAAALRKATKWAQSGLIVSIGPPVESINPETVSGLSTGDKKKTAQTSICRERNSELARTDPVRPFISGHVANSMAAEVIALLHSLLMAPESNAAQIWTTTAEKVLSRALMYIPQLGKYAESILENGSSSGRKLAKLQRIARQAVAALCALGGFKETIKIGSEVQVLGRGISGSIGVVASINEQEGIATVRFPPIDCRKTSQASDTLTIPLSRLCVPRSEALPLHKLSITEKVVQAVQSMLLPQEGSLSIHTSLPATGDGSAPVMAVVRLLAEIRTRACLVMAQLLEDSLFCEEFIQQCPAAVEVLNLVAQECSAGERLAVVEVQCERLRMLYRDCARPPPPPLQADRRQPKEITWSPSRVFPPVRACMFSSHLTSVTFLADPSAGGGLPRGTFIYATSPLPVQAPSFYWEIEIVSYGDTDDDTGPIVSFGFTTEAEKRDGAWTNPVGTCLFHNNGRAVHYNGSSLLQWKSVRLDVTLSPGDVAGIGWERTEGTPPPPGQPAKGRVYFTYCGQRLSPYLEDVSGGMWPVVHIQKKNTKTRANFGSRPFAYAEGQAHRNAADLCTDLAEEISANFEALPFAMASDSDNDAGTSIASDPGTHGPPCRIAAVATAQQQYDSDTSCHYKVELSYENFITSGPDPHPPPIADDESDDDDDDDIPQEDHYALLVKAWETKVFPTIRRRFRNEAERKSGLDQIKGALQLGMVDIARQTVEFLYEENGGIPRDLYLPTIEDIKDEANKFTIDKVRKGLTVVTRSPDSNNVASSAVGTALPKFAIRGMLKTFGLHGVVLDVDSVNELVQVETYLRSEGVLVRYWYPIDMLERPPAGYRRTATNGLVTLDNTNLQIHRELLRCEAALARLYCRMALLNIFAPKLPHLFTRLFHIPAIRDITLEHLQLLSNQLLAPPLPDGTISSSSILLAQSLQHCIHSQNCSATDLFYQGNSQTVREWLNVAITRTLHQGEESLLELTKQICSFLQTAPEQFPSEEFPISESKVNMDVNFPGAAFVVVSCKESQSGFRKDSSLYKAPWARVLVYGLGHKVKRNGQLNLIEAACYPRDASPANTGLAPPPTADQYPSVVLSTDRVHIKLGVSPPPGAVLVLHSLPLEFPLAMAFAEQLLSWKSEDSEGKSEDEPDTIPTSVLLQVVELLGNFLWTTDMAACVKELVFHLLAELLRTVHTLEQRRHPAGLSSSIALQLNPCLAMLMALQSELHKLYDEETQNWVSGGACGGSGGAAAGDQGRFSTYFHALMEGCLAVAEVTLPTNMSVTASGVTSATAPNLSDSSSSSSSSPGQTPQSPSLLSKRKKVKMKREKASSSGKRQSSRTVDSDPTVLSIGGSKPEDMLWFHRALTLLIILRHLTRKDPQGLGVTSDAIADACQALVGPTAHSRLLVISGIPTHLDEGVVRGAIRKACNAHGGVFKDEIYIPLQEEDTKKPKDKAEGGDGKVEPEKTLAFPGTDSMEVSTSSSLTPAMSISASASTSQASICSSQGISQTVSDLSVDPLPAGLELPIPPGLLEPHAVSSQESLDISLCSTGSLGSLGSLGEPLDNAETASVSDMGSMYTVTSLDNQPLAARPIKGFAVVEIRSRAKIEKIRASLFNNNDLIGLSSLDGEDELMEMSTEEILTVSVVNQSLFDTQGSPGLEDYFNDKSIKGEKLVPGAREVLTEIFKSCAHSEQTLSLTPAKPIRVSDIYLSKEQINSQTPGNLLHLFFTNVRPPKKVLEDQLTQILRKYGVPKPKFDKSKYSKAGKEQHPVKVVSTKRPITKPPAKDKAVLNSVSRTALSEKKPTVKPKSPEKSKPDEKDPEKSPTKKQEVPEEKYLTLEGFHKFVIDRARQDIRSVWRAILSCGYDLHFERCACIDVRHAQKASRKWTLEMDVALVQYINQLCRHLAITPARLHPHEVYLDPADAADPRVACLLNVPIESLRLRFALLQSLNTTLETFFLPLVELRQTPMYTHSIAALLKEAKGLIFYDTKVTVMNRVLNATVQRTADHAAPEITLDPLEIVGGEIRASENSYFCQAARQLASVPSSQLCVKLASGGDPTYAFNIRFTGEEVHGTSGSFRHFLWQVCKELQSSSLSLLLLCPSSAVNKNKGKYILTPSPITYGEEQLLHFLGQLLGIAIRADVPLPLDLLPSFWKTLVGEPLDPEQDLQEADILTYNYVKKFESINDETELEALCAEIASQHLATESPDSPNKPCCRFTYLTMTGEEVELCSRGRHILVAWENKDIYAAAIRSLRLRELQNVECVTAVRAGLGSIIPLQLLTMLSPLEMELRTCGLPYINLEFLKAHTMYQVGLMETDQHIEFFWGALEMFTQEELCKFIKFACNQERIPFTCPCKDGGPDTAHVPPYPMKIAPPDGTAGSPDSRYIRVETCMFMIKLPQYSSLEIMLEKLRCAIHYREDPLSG

No constants are given. Whether binding was seen depends on the method and setting. In cells and extracts the contact can be indirect. Some binding calls cover weakened binding; strength is not graded here.

Assay [1] addresses IGF2BP3 (insulin-like growth factor 2 mRNA binding protein 3) (human (endogenous in U251 and A172)) (UniProt O00425). Briefly: condition: only in GBM cells overexpressing circNEIL3 (ov-circNEIL3); co-IP; GBM cells transfected with ov-circNEIL3 (circNEIL3 overexpression); lysate in co-IP buffer, magnetic beads with antibodies at 4 °C for 12 h; Western blot. On the technique in general: A western blot detects proteins with antibodies after separation by electrophoresis.

The target is the same in assay [2]. Put plainly: co-IP; GBM cells transfected with ov-NC (control vector); lysate in co-IP buffer, magnetic beads with antibodies at 4 °C for 12 h; Western blot.

On to “HECTD4 (from UniProt Q9Y4D8 1-3996) (enzyme)”, for which the binding entry in assay [1] is “no binding”; in assay [2], “binds”.
